# For at least one entry, the source does not settle the construct or the ends of the probe. Protein sequences can lack the tags named with them.
# Biological target: T1, hDicer PPC cassette (Homo sapiens) (UniProt Q9UPY3)
# T1 sequence (looked up): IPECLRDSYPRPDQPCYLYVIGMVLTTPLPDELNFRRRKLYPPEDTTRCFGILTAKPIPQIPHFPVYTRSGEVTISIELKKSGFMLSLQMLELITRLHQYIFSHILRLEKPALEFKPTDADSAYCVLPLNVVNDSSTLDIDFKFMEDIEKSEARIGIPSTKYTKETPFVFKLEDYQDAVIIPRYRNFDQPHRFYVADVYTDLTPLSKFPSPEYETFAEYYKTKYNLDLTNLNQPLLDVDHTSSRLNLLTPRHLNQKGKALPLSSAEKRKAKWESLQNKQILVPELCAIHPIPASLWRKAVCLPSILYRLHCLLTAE
# Assay: EMSA
# Conditions: EMSA: 20 mM Tris-HCl pH 7.4, 100 mM KCl, 30 min on ice; 5% or 10% native PAGE at 4 C in 1x TBE; G-rich oligos folded in 50 mM KCl; recombinant protein; residues 753-1068; protein details: N-terminal 6xHis (pMCSG7); label: 5'-32P
sequence,measurement,value
UCGAAGUAUUCCGCGUACGUG / CGUACGCGGAAUACUUCGAAA [dsRNA_OV],Kd,50 nM

# — article PMC8038994, “RNA and DNA G-quadruplexes bind to human dicer and inhibit its activity”
